# Primary screen of a compound library

The chains behind the UniProt entries cited, without tags or fusion partners. Residues count along the entry.
UniProt A4I591, 1-473: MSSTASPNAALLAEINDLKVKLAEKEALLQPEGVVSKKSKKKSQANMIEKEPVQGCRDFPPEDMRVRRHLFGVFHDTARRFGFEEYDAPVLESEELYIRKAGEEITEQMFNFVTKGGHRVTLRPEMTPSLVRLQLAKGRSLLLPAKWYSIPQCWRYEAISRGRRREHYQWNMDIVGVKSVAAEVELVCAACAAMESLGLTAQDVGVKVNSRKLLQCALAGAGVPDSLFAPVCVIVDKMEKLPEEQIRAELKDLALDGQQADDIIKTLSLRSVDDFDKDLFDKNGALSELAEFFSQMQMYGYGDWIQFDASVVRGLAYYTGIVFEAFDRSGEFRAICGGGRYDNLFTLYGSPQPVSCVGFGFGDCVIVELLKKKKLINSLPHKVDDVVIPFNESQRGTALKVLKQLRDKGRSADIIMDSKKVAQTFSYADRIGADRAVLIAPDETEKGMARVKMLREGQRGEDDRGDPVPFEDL
UniProt P9WNZ1, whole entry: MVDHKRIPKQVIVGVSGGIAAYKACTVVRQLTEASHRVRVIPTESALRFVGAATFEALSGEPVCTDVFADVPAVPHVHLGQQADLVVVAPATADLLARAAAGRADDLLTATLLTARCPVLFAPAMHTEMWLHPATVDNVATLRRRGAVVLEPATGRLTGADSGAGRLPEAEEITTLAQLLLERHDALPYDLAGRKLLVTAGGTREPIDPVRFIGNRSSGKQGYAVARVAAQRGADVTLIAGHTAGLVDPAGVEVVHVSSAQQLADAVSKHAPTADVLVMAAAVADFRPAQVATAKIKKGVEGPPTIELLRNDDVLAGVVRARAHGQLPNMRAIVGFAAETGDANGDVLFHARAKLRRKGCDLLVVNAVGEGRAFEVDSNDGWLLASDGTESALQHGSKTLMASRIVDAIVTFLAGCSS

From ChEMBL document CHEMBL3988442, “University of Dundee, Small-Polar-MMV Screening Library” (2021).

LiHisRS: 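Histidine-tRNA ligase, Leishmania infantum (UniProt A4I591). Enzyme assay of histidyl-tRNA synthetase; the read-out is not stated. Compounds at 30 µM. Higher reads as stronger inhibition (inferred: compounds with an IC50 in retests scored well above the rest). The assay is labelled LdHisRS but filed under L. infantum. Of about 69,000 compounds tested this way, about 410 (0.6%) reached 50% or more in at least one test.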
Leishmania in macrophages: 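Cell assay of Leishmania donovani living inside macrophages; the read-out is not stated. Tested at 30 µM. The record gives no direction; compounds that gave an IC50 in retests scored well above the rest, so higher reads as stronger inhibition. Size under these conditions: about 69,000 compounds, about 1,000 of them at 50% or above in at least one test.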
CoaBC: 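Enzyme assay of CoaBC with a phosphate dye (Biomol Green) read at 650 nm. Target: Coenzyme A biosynthesis protein CoaBC, Mycobacterium tuberculosis (UniProt P9WNZ1). Concentration: 30 µM. Higher reads as stronger inhibition, judged from the few compounds that gave an IC50. Most strong results did not repeat in a second test. Size under these conditions: about 67,000 compounds, about 40 of them at 50% or above in at least one test.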

Values are the deposited “Percent Effect”, in %. The record does not define 0% and 100%; most values in the screen are far below 50% and negative numbers occur (in some assays of this library far below -100). The compounds are a random part of those screened. Two or more numbers in one place are separate tests of the same structure; such repeats can differ widely.

For CCn1ncc(-c2cc(C(F)(F)F)nc(N3CCC(N)CC3)n2)c1C the result was LiHisRS: 15.05%; Leishmania in macrophages: 100.6%; CoaBC: 0.3367%. With CN1C(=O)CCCC12CCCN(Cc1cccs1)C2.O=C(O)C(F)(F)F (configuration not stated) the screen gave Leishmania in macrophages: 13.27%. OCC(O)CSCc1cn(-c2ccc(Cl)cc2)nn1 (configuration not stated) read LiHisRS: 10.53%; Leishmania in macrophages: 6.549%; CoaBC: 3.629%. O=C(c1ccc(N2CCCCCC2)nn1)N1CCc2ccccc21 read LiHisRS: 19.18%; Leishmania in macrophages: 6.176%; CoaBC: 7.246%. Cc1ccc(C(C)(O)CNC(=O)CCn2ccnc2C(C)C)o1 (configuration not stated) read LiHisRS: 5.208%; Leishmania in macrophages: 9.555%; CoaBC: -3.125%. With CN1CCN(C[C@@H]2OC[C@H]3CN(Cc4cccc(F)c4)CC[C@H]32)CC1 the screen gave LiHisRS: 1.887%; CoaBC: -0.8883%. CCCN1CC2(CCN(C)CC2)CC1C(=O)NCCn1cccn1 (configuration not stated) gave LiHisRS: 11.57%; Leishmania in macrophages: 18.95%; CoaBC: 7.366%. CSc1ccc(CNC2(c3ccc(F)cc3)CCOCC2)cc1 read LiHisRS: 15.15%; Leishmania in macrophages: -3.103%; CoaBC: 4.637%.

For COc1ccc(N2CCN(C(=O)CCn3nccc3C)CC2(C)C)cc1 the result was LiHisRS: 21.88%; Leishmania in macrophages: 30.16%; CoaBC: 7.592%. Result for Cc1cc(CN2CC[C@H]3C[C@@H](c4nc(C5CC5)cs4)O[C@@H]3C2)no1 was LiHisRS: 6.306%; CoaBC: 3.96%. Result for CCS(=O)(=O)NC1CCCN(Cc2ccn(C)c(=O)c2)C1 (configuration not stated) was LiHisRS: 21.92%; Leishmania in macrophages: 3.546%; CoaBC: 6.375%. For C[C@@H]1C(=O)NC[C@H]2CN(CCc3ccccc3)C[C@H]21 the result was LiHisRS: 14.63%; CoaBC: 0.9674%. CC(C)(C)c1ccc2c(c1)CCN2C(=O)c1ccc(=O)[nH]n1 read LiHisRS: 0%; Leishmania in macrophages: -5.082%; CoaBC: 2.789%. Cc1nccc([C@@H]2C[C@H]3CN(S(=O)(=O)c4ccccc4)C[C@H]3O2)n1 gave LiHisRS: 9.722%; CoaBC: 6.914%. O=C(O)C(F)(F)F.O=C(O)C(F)(F)F.[H][C@@]12CCN(CC3CC3)[C@@]1([H])CCN2Cc1ccc2c(c1)OCO2 read Leishmania in macrophages: 7.105%. With O=C(c1ccnnc1)N1CCC2(CC1)CN(c1ccccn1)CCO2 the screen gave LiHisRS: 0.9174%; Leishmania in macrophages: 14.68%; CoaBC: -4.665%.

With CC(NC(=O)NC1CCN(Cc2ccncc2)CC1)c1cccc(F)c1 (configuration not stated) the screen gave LiHisRS: 17.05%; Leishmania in macrophages: 7.36%; CoaBC: 5.037%. With Cc1nc(C2(O)CCCNCC2)sc1CCOc1ccccc1F.Cl (configuration not stated) the screen gave Leishmania in macrophages: 57.78%. O=C(O)C(F)(F)F.O=C(O)C(F)(F)F.O=C1CC2(CCN(Cc3cccnc3)C2)CN1c1cccc(F)c1 (configuration not stated) read Leishmania in macrophages: 9.694%. For CCS(=O)(=O)N1CC[C@@H]2[C@H]1CCC(=O)N2CCOC the result was LiHisRS: 6.306%; CoaBC: 1.485%. Result for CC(C)n1cnnc1C1CCCN(S(=O)(=O)CCCF)C1 (configuration not stated) was LiHisRS: 14.81%; Leishmania in macrophages: 0.686%; CoaBC: 0.3841%. Result for [H][C@]12CC[C@](O)(c3ccc(C)cc3)[C@@]1([H])CN(S(=O)(=O)C(C)C)C2 was Leishmania in macrophages: 14.68% & 13.01%. CNC(=O)COC1COC2(CCN(c3ccc(C)nn3)CC2)C1.O=C(O)C(F)(F)F (configuration not stated) gave Leishmania in macrophages: -15.23% & 12.94%. C[C@@H]1CN(Cc2ccncc2)C[C@@]1(O)C1CC1 read LiHisRS: 13.04%; Leishmania in macrophages: 20.81%; CoaBC: 4.253%.

CC(C)c1nc(CN2CCN(C(=O)OC(C)(C)C)C(C)C2)no1 (configuration not stated) gave LiHisRS: 1.036%; Leishmania in macrophages: 15.23%; CoaBC: 0.3822%. With O=C(CCS(=O)(=O)c1ccccc1)N1CCCC(n2cccn2)C1 (configuration not stated) the screen gave LiHisRS: 17.86%; Leishmania in macrophages: 20.2%; CoaBC: 4.183%. Result for O=C(c1nc2c(o1)CN(CC1CC1)C2)N1CCCC1 was LiHisRS: 10.26%. Result for Cc1ccc(C(=O)NC2CCN(CC(=O)N(C)c3ccccc3)CC2)o1 was LiHisRS: 9.649%; Leishmania in macrophages: 14.58%; CoaBC: 1.956%. For O=C(O)C(F)(F)F.[H][C@@]12COC[C@]1(COc1ccccn1)CN(C(=O)c1c(C)noc1C)C2 the result was Leishmania in macrophages: 16.61%. Result for CC(C)c1n[nH]c(C2CN(C(=O)CCn3ccccc3=O)CCO2)n1 (configuration not stated) was LiHisRS: 8.108%; Leishmania in macrophages: -2.138%; CoaBC: 6.527%. With Cc1nn(C)c(N(C)C)c1CNC(C)COc1ccc(F)cc1 (configuration not stated) the screen gave LiHisRS: 1.923%; Leishmania in macrophages: 17.76%; CoaBC: 3.106%. CC(C)n1ccnc1CN1CCOC(CC2CCCCC2)C1 (configuration not stated) read LiHisRS: -3.947%; Leishmania in macrophages: -40.91%; CoaBC: -2.804%.

With O=C(c1cccs1)N1CCC[C@]2(C[C@@H](OCc3ccncc3)CO2)C1 the screen gave LiHisRS: 13.89%; CoaBC: -0.9677%. For COCCN1CCCCC12CC(=O)N(c1cccc(C#N)c1)C2.O=C(O)C(F)(F)F (configuration not stated) the result was Leishmania in macrophages: 50.28%. Result for Cc1cccc(N2CCC3(CCCN(C(=O)c4cccnc4)C3)C2)n1 (configuration not stated) was LiHisRS: -9.735%; CoaBC: -4.034%. Result for O=C(O)C(F)(F)F.O=C(O)C(F)(F)F.[H][C@@]12CCN(C3CCOCC3)C[C@]1([H])OCCN(Cc1cccnc1)C2=O was Leishmania in macrophages: 27.89%. Result for O=C(O)C(F)(F)F.O=C1NCC[C@]12CN(Cc1nccs1)C[C@H]2c1ccccc1 was Leishmania in macrophages: 7.275%.

Some entries from above, unchanged:

For O=C(O)C(F)(F)F.O=C1NCC[C@]12CN(Cc1nccs1)C[C@H]2c1ccccc1 the result was Leishmania in macrophages: 7.275%.
For CCn1ncc(-c2cc(C(F)(F)F)nc(N3CCC(N)CC3)n2)c1C the result was LiHisRS: 15.05%; Leishmania in macrophages: 100.6%; CoaBC: 0.3367%.
For CC(C)n1cnnc1C1CCCN(S(=O)(=O)CCCF)C1 (configuration not stated) the result was LiHisRS: 14.81%; Leishmania in macrophages: 0.686%; CoaBC: 0.3841%.